Laboratory results: PubChem BioAssay AID504834 (National Center for Advancing Translational Sciences (NCATS), 2011)
About 22,000 (6.9%) of roughly 320,000 compounds were called active. Inconclusive results, whose numbers are uncertain, are shown with a selection of clear calls. Calls come from the whole dose curve; as a rule, active = well fitted inhibition curve with a large enough effect; inconclusive = small, poorly fitted or top-dose-only effect, or another doubt; inactive = no such curve, though single readings can be large or run the other way. A potency beside an inconclusive call is a rough fit, not a confirmed value.

Test: Primary qHTS for delayed death inhibitors of the malarial parasite plastid, 96 hour incubation
Conditions: P. falciparum luciferase reporter growth; series mostly up to 28.7 µM
Summary of the method: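 Cell-based qHTS: luciferase-tagged P. falciparum in erythrocytes (2% hematocrit, 0.05% parasitemia final) incubated with compounds for 96 hours, 37 C, 5% CO2; luciferase detection reagent then added and luminescence measured.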
Potency is the fitted concentration of half-maximal effect.

| Compound | Potency |
| --- | --- |
| Cc1ccccc1OCc1nc2ccccc2c(=O)n1NC(=O)c1ccco1 | inactive |
| COc1cc2[nH]c(=O)n(CCC(=O)N3CCN(c4cccc(C)c4C)CC3)c(=O)c2cc1OC | inconclusive: 18.5 µM [inhibitor, single point] |
| O=C(CCc1nc2ccccc2c(=O)[nH]1)NCCN1C(=O)S/C(=C\c2ccc(Cl)cc2Cl)C1=O | inactive |
| CC1CCc2nn(CC(=O)N3CCCCCC3)cc2C1 (stereo unspecified) | inactive |
| S=C(NCC1CCCO1)n1nnc2ccccc21 (stereo unspecified) | inconclusive: 6.57 µM [inhibitor, partial curve] |
| CSc1ccc(CN2C(=O)NC3(CCCCCCC3)C2=O)cc1 | inconclusive: 18.5 µM [inhibitor, partial curve, poor fit] |
| CCCOc1ccc(CNC(=S)Nc2ccccc2)cc1Cl | inactive |
| Cc1cc(C)c2nc(Cl)c(CN(Cc3ccco3)C(=O)Nc3ccccc3C)cc2c1 | inconclusive: 18.5 µM [inhibitor, single point] |
| Cc1cccc(-n2c(C)cc(/C=C3/C(=N)N4C(c5ccccc5)=CSC4=NC3=O)c2C)c1 | inconclusive: 2.62 µM [inhibitor, single point] |
| CC(=O)NNC(=O)c1[nH]c2ccc(Cl)cc2c1-c1ccccc1 | inactive |
| CCOC(=O)c1c(-c2ccc(C)cc2)csc1NC(=O)CCN1CC(C)OC(C)C1 (stereo unspecified) | inconclusive: 16.5 µM [inhibitor, single point] |
| CCN(CC)CCCn1c2c(c(SCC(=O)Nc3cc(OC)cc(OC)c3)nc1=O)CCC2 | inconclusive: 13.1 µM [inhibitor, partial curve, poor fit] |
| CC(=O)CCC1C2C(O)C(C(C)C)C(OC(=O)/C=C/c3ccccc3)CC12C (stereo unspecified) | inconclusive: 10.4 µM [inhibitor, single point] |
| COc1ccc(C(=O)CC(=O)c2ccccc2O)cc1OC | inactive |
| Cc1ccccc1NC(=O)C1CC(Cl)=CCC1C(=O)O (stereo unspecified) | inconclusive: 0.0828 µM [inhibitor, full curve, poor fit] |
| CCOC(=O)c1c(NC(=O)COC(=O)c2nc(Cl)ccc2Cl)sc(C(=O)N(C)C)c1C | inactive |
| COCCNc1nc(N)c([N+](=O)[O-])c(NCc2ccccc2)n1 | inconclusive: 10.4 µM [inhibitor, single point] |
| Fc1ccc(C2=Nn3c(nnc3-c3n[nH]c4c3CCC4)SC2)cc1 | inconclusive: 13.1 µM [inhibitor, single point] |
| Oc1ccc(CNc2cccc(F)c2F)c2cccnc12 | inconclusive: 11.7 µM [inhibitor, single point] |
| CCOc1ccc(S(=O)(=O)N2CCOCC2)cc1NC(=O)CCOc1ccc(C(C)(C)C)cc1 | inconclusive: 4.15 µM [inhibitor, single point] |
| NC(=O)CCC(=O)N1CCCC(C(=O)c2ccc3c4c(cccc24)CC3)C1 (stereo unspecified) | inconclusive: 3.7 µM [inhibitor, full curve, poor fit] |
| CC(C)(C)NC(=O)COC(=O)c1ccccc1Nc1ccc(SC(F)F)cc1 | inconclusive: 18.5 µM [inhibitor, single point] |

| Compound | Potency |
| --- | --- |
| S=C1NC2CCCCC2N1 (stereo unspecified) | inactive |
| COc1cc(OC)cc(-c2c(-c3cccs3)c3cc(-c4ccc(OC)c(OC)c4)ccc3n2C)c1 | inconclusive: 8.28 µM [inhibitor, single point] |
| Cc1oc(-c2ccccc2F)nc1CN1CCC(C(=O)NCc2cccs2)CC1 | inconclusive: 0.329 µM [inhibitor, full curve] |
| Cc1ccc(NC(=O)/C=C/c2ccc([N+](=O)[O-])s2)c(C)c1 | active: 3.29 µM |
| CC(CC(=O)N(CCC1=CCCCC1)c1c(N)n(Cc2ccccc2)c(=O)[nH]c1=O)c1ccccc1 (stereo unspecified) | inactive |
| COc1ccc(CCNC(=O)CC2SC(=NCCc3ccccc3)NC2=O)cc1OC (stereo unspecified) | active: 9.28 µM |
| COc1ccc(CC(=O)Nc2cccc(S(=O)(=O)N3CCCC3)c2)cc1OC | inconclusive: 10.4 µM [inhibitor, single point] |
| Cc1oc(-c2ccccc2Cl)nc1CSc1nc2c(c(=O)[nH]1)CCC2 | inconclusive: 18.5 µM [inhibitor, single point] |
| O=C(CCCCCCCCC(=O)N/N=C/c1ccco1)N/N=C/c1ccco1 | inconclusive: 10.4 µM [inhibitor, single point] |
| COc1ccc(N2CCN(CC(O)COC(c3ccccc3)c3ccccc3)CC2)cc1 (stereo unspecified) | inactive |
| COC(=O)c1ccc(CNC(=O)C2CCC(=O)N(Cc3cccc(F)c3)C2)cc1 (stereo unspecified) | inactive |
| COc1cccc(C(=O)N2c3cc(C)ccc3OCC2C(C)(C)C)c1 (stereo unspecified) | inconclusive: 4.65 µM [inhibitor, partial curve, poor fit] |
| COc1ccccc1NC(=O)CN1CCN(CC(=O)Nc2ccc(C)c(F)c2)CC1 | inconclusive: 7.38 µM [inhibitor, partial curve] |
| CCOc1ccc(Cn2c(=O)sc3ccccc32)cc1 | inconclusive: 0.0657 µM [inhibitor, full curve, poor fit] |
| O=C(/C=C/c1ccccc1)NC1CCCc2ccccc21 (stereo unspecified) | inconclusive: 16.5 µM [inhibitor, partial curve, poor fit] |
| Cc1cc(/C=N/N2CCN(C)CC2)c(C)n1-c1ccc(Cl)cc1 | inconclusive: 18.5 µM [inhibitor, single point] |
| O=C1C=C(c2ccc3[nH]ccc3c2)C[C@@H](c2ccc(F)cc2)C1 | inconclusive: 14.7 µM [inhibitor, single point] |
| Cc1cc(NC(=O)CSCC(=O)N(C)Cc2ccc(Cl)c(Cl)c2)no1 | inconclusive: 0.0037 µM [inhibitor, full curve, poor fit] |
| O=c1c(-c2ccccc2)c[nH]n1-c1cccc([N+](=O)[O-])c1 | inconclusive: 13.1 µM [inhibitor, single point] |
| O=C(CCN1CCCCC1)NNC(=S)NC(=O)c1ccc(Br)cc1 | inactive |
| CCOc1ccc(N2CCCCn3c2nc2c3c(=O)[nH]c(=O)n2C)cc1 | inconclusive: 18.5 µM [inhibitor, single point] |
| CCOC(=O)C1CCCN(C(=O)c2ccc3oc(CCc4ccccc4)nc3c2)C1 (stereo unspecified) | inconclusive: 1.31 µM [inhibitor, full curve] |

For convenience, part of the list above.

| Compound | Potency |
| --- | --- |
| COc1cc(OC)cc(-c2c(-c3cccs3)c3cc(-c4ccc(OC)c(OC)c4)ccc3n2C)c1 | inconclusive: 8.28 µM [inhibitor, single point] |
| Cc1oc(-c2ccccc2F)nc1CN1CCC(C(=O)NCc2cccs2)CC1 | inconclusive: 0.329 µM [inhibitor, full curve] |

The list continues.

| Compound | Potency |
| --- | --- |
| COCCn1c(C)cc(C(=O)CSc2nc3ccccc3c(=O)[nH]2)c1C | active: 0.294 µM |
| Cc1cccc(N2CCN(S(=O)(=O)c3ccc4c(c3)NC(=O)CS4)CC2)c1C | inconclusive: 18.5 µM [inhibitor, single point] |
| Cc1ccc(C)c(NC(=O)CSc2nc(C)cs2)c1 | inconclusive: 11.7 µM [inhibitor, single point] |
| CC1CC(C)CN(C(=O)CCNC(=O)c2ccccc2Cl)C1 (stereo unspecified) | active: 0.465 µM |
| COc1ccc(N2CCN(C3CC(=O)NC3=O)CC2)cc1 (stereo unspecified) | inconclusive: 2.33 µM [inhibitor, full curve] |
| O=C1C=C(NC2CCCCC2)CCC1 | active: 13.1 µM |
| CCOC(=O)C1CCN(C(=O)CNC(=O)c2nn(-c3ccc(OC)c(Cl)c3)c(=O)c3ccccc23)CC1 | inconclusive: 1.04 µM [inhibitor, partial curve, poor fit] |
| O=C(CCN1C(=O)C2C3C=CC(C3)C2C1=O)Nc1ccccc1F (stereo unspecified) | inconclusive: 1.65 µM [inhibitor, partial curve, poor fit] |
| O=C(COc1ccc(/C=N/NC(=O)c2ccncc2)cc1)Nc1cccc([N+](=O)[O-])c1 | inconclusive: 3.29 µM [inhibitor, partial curve, poor fit] |
| Cc1ccc(C)c(-c2ccc(=O)n(Cc3c(F)cccc3Cl)n2)c1 | inconclusive: 9.28 µM [inhibitor, partial curve] |
| O=C(N/C(=C\c1ccc([N+](=O)[O-])cc1)C(=O)N1CCCCC1)c1ccco1 | inactive |
| O=C(Nc1ccc(F)cc1)C1CCCN(S(=O)(=O)c2ccc3[nH]c(=O)ccc3c2)C1 (stereo unspecified) | inconclusive: 10.4 µM [inhibitor, partial curve, poor fit] |
| O=C(CCC(=O)N1CCN(C2CCCC2)CC1)Nc1nnc(C(F)(F)F)s1 | inconclusive: 18.5 µM [inhibitor, single point] |
| CCOC(=O)c1cc(NC(=O)C2C3C=CC(O3)C2C(=O)O)cc(C(=O)OCC)c1 (stereo unspecified) | active: 11.7 µM |
| CCOc1ccc(CCNC(=O)Cn2ccc3ccccc3c2=O)cc1OCC | inconclusive: 3.7 µM [inhibitor, full curve] |
| CCCOc1ccc(/C=N/Nc2cccc([N+](=O)[O-])c2)c(O)c1 | inconclusive: 18.5 µM [inhibitor, single point] |
| Cc1cccnc1NC(=O)C1CCN(S(=O)(=O)c2c(C)noc2/C=C/c2ccco2)CC1 | inconclusive: 4.15 µM [inhibitor, partial curve, poor fit] |
| O=c1c2ccccc2nc(-c2ccccc2)n1-c1cccnc1 | inconclusive: 0.0029 µM [inhibitor, full curve, poor fit] |
| CC1Cc2cc(S(=O)(=O)N3CCCCC3C)ccc2N1C(=O)C1CCC1 (stereo unspecified) | active: 10.4 µM |
| CCCCSCCCNC(=O)CCCN1C(=O)c2ccccc2Sc2ncccc21 | inconclusive: 3.29 µM [inhibitor, partial curve, poor fit] |
| O=c1oc2c(CN3CCOCC3)c(O)c(Cl)cc2c2c1CCC2 | inactive |
| COc1ccc(-c2ccc(C(C)=O)cc2)cc1[C@H]1[C@H]2C=CC[C@@H](C)[C@@H]2C(=O)N1Cc1ccccc1 | inconclusive: 2.08 µM [inhibitor, partial curve, poor fit] |

Sorted by length of the SMILES (rising): three of the compounds above

| Compound | Potency |
| --- | --- |
| COc1ccc(N2CCN(C3CC(=O)NC3=O)CC2)cc1 (stereo unspecified) | inconclusive: 2.33 µM [inhibitor, full curve] |
| CCOC(=O)c1cc(NC(=O)C2C3C=CC(O3)C2C(=O)O)cc(C(=O)OCC)c1 (stereo unspecified) | active: 11.7 µM |
| CCOC(=O)C1CCN(C(=O)CNC(=O)c2nn(-c3ccc(OC)c(Cl)c3)c(=O)c3ccccc23)CC1 | inconclusive: 1.04 µM [inhibitor, partial curve, poor fit] |
